Measurements taken from the supplement of paper PMC7666118.
This is one part of the list.

Sequences of proteins named here, by UniProt entry; tags and fusion partners are left off. A change or cut given only in a name is not applied to a line headed by its entry.
UniProt Q8IYS1: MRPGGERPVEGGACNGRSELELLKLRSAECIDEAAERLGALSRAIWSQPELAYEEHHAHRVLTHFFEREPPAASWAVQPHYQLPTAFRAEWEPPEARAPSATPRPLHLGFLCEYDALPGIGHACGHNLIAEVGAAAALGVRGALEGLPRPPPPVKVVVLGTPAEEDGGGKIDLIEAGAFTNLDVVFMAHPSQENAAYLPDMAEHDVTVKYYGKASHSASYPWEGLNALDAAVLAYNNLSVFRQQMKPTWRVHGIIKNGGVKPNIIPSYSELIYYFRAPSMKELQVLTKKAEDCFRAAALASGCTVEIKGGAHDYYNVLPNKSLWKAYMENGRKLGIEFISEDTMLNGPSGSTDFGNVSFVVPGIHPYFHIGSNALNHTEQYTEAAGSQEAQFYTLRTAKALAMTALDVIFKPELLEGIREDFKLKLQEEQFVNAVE
UniProt Q12972: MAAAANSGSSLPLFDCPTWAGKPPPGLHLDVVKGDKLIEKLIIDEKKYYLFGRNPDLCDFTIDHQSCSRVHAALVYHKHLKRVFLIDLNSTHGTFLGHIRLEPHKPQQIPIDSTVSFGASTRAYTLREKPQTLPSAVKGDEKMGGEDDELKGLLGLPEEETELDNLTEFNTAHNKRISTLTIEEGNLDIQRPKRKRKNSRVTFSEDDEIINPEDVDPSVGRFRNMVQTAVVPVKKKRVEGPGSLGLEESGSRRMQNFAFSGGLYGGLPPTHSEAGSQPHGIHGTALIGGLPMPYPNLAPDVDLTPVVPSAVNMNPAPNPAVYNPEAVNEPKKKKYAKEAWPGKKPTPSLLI
UniProt P13861, whole entry: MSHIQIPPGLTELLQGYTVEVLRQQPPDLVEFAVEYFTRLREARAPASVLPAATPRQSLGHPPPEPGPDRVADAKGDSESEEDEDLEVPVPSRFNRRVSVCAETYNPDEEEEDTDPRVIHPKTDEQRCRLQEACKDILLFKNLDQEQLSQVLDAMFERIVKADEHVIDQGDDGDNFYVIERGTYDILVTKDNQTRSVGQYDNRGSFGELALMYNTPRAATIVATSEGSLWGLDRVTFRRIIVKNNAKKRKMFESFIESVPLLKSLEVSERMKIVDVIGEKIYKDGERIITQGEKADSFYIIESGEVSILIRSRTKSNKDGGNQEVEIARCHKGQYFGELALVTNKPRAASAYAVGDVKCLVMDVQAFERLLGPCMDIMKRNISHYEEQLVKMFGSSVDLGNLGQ
UniProt Q10713: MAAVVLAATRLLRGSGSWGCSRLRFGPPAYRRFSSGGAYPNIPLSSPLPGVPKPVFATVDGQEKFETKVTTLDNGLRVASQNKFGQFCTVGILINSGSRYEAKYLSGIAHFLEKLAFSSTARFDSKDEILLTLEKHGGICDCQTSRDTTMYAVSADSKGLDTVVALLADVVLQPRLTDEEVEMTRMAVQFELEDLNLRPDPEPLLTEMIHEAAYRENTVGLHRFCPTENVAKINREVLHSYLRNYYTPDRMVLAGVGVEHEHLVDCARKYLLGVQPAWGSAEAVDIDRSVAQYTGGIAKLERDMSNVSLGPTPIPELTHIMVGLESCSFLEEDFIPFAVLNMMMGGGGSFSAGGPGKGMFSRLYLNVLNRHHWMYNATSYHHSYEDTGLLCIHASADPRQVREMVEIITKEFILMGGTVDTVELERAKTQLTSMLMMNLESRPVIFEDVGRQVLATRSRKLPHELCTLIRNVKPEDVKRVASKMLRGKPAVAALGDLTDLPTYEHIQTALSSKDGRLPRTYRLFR
UniProt Q8TF05: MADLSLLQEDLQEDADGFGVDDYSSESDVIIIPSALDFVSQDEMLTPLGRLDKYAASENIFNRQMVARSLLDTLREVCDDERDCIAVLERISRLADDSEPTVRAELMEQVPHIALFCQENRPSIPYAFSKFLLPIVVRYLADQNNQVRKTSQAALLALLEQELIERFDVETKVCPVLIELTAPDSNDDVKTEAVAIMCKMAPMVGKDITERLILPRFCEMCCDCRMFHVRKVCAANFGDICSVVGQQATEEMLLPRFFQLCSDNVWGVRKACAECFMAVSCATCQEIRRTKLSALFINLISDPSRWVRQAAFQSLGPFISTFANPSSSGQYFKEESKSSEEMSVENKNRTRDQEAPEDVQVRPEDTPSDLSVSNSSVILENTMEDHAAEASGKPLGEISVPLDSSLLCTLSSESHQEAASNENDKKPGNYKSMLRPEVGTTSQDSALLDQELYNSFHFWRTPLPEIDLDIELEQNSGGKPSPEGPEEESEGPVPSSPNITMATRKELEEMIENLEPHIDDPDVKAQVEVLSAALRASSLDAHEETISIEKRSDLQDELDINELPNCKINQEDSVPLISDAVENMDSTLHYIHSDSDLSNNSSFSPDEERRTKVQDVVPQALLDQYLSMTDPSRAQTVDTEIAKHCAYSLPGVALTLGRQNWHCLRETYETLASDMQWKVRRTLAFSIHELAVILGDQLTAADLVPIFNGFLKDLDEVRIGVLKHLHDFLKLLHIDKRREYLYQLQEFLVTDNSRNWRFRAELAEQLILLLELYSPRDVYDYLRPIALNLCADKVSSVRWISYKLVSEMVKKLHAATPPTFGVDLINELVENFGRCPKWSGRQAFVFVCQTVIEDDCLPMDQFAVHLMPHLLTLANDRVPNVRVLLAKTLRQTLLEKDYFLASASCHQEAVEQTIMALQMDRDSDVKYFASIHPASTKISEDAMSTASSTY
UniProt P50897: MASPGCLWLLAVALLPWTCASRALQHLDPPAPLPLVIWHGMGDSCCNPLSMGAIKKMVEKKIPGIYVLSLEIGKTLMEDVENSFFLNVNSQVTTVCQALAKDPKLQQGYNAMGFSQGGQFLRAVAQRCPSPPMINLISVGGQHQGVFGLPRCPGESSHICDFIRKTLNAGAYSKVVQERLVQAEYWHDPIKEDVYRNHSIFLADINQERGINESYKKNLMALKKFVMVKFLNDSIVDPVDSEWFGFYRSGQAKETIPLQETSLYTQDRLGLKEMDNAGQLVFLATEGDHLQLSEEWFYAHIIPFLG
UniProt Q14558: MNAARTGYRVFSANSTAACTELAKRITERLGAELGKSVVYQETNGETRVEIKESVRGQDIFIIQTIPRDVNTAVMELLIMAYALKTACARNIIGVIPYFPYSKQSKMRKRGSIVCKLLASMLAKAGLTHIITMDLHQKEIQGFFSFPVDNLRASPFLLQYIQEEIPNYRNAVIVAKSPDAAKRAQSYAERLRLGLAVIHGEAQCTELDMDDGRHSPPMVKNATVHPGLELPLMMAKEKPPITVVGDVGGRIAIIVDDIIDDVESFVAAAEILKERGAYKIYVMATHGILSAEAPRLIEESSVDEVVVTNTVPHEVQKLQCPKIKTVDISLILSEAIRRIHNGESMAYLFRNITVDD
UniProt Q99460, whole entry: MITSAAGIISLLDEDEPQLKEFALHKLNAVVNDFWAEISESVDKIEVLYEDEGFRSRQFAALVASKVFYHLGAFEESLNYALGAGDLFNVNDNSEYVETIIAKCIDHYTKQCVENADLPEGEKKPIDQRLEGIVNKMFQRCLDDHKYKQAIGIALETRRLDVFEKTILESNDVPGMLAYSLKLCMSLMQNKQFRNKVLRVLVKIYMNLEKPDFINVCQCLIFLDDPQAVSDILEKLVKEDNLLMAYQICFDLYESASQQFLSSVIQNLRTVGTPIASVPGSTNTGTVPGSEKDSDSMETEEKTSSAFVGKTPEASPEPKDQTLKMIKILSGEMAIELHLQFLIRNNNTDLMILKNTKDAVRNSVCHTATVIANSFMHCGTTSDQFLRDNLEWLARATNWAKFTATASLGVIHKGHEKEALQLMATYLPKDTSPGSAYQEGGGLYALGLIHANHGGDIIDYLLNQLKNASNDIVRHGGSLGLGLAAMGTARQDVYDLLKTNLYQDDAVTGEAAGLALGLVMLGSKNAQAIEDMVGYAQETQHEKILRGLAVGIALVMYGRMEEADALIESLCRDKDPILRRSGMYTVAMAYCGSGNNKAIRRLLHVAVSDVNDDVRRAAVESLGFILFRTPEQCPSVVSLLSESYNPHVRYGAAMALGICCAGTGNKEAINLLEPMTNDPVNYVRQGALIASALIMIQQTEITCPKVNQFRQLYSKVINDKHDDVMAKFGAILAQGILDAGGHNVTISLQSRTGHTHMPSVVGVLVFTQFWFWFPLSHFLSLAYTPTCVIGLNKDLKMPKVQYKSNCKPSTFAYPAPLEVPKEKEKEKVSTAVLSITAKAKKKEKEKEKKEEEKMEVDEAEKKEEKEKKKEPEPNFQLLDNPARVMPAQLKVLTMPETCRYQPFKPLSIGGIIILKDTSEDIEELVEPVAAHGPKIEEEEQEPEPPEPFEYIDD
UniProt Q16537, whole entry: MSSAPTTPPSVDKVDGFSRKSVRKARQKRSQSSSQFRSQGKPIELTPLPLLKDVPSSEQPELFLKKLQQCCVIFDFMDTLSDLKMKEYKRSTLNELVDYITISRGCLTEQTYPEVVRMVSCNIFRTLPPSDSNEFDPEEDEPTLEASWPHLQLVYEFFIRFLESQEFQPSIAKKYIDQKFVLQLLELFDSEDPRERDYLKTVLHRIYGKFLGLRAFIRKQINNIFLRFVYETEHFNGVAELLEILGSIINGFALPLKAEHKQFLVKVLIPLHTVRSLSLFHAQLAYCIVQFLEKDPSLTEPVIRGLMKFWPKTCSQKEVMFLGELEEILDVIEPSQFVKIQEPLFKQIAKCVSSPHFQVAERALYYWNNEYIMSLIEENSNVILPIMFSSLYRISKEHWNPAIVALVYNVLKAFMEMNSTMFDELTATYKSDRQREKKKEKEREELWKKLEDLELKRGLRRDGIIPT
UniProt O00231, whole entry: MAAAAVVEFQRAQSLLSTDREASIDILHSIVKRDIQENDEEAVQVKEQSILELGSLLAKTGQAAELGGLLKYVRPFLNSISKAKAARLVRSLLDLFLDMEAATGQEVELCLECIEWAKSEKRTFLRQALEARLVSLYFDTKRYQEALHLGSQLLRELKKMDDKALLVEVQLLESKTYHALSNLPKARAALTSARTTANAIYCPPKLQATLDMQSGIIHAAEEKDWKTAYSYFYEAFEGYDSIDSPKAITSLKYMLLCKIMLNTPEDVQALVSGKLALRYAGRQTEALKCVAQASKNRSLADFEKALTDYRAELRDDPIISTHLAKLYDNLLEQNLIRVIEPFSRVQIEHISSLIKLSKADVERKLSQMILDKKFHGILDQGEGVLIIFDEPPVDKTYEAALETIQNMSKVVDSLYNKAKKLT
UniProt P28066: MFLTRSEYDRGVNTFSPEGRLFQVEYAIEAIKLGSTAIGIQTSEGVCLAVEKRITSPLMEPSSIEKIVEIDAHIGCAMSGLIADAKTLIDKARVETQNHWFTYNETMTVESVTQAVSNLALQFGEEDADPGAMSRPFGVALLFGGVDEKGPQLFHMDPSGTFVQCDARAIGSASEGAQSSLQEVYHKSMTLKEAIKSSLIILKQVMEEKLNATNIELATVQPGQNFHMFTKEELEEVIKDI
UniProt Q8WV60: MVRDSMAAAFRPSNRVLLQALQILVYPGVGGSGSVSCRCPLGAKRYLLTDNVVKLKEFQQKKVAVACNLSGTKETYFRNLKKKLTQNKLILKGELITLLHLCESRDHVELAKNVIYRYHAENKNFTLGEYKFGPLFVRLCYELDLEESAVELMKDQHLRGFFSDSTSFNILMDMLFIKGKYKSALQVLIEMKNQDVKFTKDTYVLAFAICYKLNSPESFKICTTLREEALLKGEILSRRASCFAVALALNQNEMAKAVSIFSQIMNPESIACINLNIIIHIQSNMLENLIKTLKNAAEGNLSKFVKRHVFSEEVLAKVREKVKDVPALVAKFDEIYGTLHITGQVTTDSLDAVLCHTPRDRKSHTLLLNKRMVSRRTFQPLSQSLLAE
UniProt O15305: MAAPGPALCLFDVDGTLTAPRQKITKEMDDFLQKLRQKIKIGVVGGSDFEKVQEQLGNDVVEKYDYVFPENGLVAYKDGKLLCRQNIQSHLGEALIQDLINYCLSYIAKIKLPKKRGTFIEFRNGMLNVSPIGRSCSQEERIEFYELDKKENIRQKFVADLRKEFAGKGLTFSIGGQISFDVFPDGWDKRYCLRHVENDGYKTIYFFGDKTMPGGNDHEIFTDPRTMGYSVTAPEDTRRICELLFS
UniProt P49643: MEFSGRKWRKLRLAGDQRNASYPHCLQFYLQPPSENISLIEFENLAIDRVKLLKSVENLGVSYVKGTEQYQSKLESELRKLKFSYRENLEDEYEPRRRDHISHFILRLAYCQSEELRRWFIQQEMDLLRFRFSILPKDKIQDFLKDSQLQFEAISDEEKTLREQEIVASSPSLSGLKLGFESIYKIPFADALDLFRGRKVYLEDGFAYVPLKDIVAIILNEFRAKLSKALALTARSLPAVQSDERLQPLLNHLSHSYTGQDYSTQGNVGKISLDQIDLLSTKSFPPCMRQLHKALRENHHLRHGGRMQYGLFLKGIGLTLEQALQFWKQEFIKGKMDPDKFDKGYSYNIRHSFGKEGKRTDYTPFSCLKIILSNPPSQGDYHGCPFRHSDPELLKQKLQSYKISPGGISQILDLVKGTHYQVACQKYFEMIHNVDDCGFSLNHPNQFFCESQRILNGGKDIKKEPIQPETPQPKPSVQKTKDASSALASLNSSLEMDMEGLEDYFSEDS

Each target was assayed with COc1ccc(Cn2ccc3cc(C)c(C(=O)NO)cc32)cc1 (assay: dose-dependent thermal stabilisation call (2D-TPP, DLPTP, 10% FDR) (binary (1 = stabilised)); higher = stabilised by the compound). Conditions: system: HL-60 intact cells; concentration range 0.04-10 µM.
Description: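 2D thermal proteome profiling in intact HL-60 cells treated with BRD-3811 (0, 0.04, 0.29, 2, 10 uM) for 90 min at 37 C, then heated 3 min at one of 12 temperatures (42-63.9 C). Soluble protein was quantified by TMT10 MS. The value is the DLPTP call of the paper: dose-dependent thermal stabilisation over all temperatures at 10% FDR (F-test of a dose-response against a flat model); one experiment, one call per tested protein.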

Row | Target | dose-dependent thermal stabilisation call
1 | POLR2L (UniProt P62875) | inactive: 0
2 | PSMG4 (UniProt Q5JS54) | inactive: 0
3 | PM20D2 (UniProt Q8IYS1) | inactive: 0
4 | PPP6C (UniProt O00743) | inactive: 0
5 | PPP1R8 (UniProt Q12972) | inactive: 0
6 | PREX1 (UniProt Q8TCU6) | inactive: 0
7 | POLR1D | inactive: 0
8 | PRKAR2A (UniProt P13861) | inactive: 0
9 | PRAM1 (UniProt Q96QH2) | inactive: 0
10 | PMPCA (UniProt Q10713) | inactive: 0
11 | PPM1A (UniProt P35813) | inactive: 0
12 | PMPCB (UniProt O75439) | inactive: 0
13 | PPFIBP1 (UniProt Q86W92) | inactive: 0
14 | PTPLAD1 (UniProt Q9P035) | inactive: 0
15 | PRKAR1A (UniProt P10644) | inactive: 0
16 | POLR3E (UniProt Q9NVU0) | inactive: 0
17 | POLR2H (UniProt P52434) | inactive: 0
18 | PPP4R1 (UniProt Q8TF05) | inactive: 0
19 | PPP4C (UniProt P60510) | inactive: 0
20 | PSMF1 (UniProt Q92530) | inactive: 0

Row | Target | dose-dependent thermal stabilisation call
21 | PPT1 (UniProt P50897) | inactive: 0
22 | PRPSAP1 (UniProt Q14558) | inactive: 0
23 | PMS1 (UniProt P54277) | inactive: 0
24 | PPP2R1B (UniProt P30154) | inactive: 0
25 | PSMD1 (UniProt Q99460) | inactive: 0
26 | PPP2R5E (UniProt Q16537) | inactive: 0
27 | PSMD11 (UniProt O00231) | inactive: 0
28 | PSMB2 (UniProt P49721) | inactive: 0
29 | PSMA5 (UniProt P28066) | inactive: 0
30 | PRELID1 (UniProt Q9Y255) | active: 1
31 | PRNP | inactive: 0
32 | PTPN6 (UniProt P29350) | inactive: 0
33 | PNO1 (UniProt Q9NRX1) | inactive: 0
34 | PTCD2 (UniProt Q8WV60) | inactive: 0
35 | PREB (UniProt Q9HCU5) | inactive: 0
36 | PSMD10 (UniProt O75832) | inactive: 0
37 | PMM2 (UniProt O15305) | inactive: 0
38 | PRIM2 (UniProt P49643) | inactive: 0
39 | PRDX3 (UniProt P30048) | active: 1
40 | PPIL4 (UniProt Q8WUA2) | inactive: 0

An excerpt of these results, comma-delimited:
Row,Target,dose-dependent thermal stabilisation call
32,PTPN6 (UniProt P29350),inactive: 0
39,PRDX3 (UniProt P30048),active: 1
